Assay results as given in the supplement of paper PMC8728848.
The list shows a part of the results.

Key:
Assay in all cases: glycan array binding signal (z-score within array); higher = stronger binding
Details in all cases: glycan notation: IUPAC condensed, linker removed
[1] = biological target: Gal(b1-3)GlcNAc(b1-2)Man(a1-3)[GlcNAc(b1-4)][Gal(b1-3)GlcNAc(b1-2)Man(a1-6)]Man(b1-4)GlcNAc(b1-4)GlcNAc
Method in brief: (§1)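 Glycan array data came from 3228 arrays in the Consortium for Functional Glycomics database, and only arrays with an available protein sequence were kept. Glycan names were put into IUPAC-condensed notation, and columns mapping to the same glycan were averaged. The binding signal is a within-array Z-score, averaged across arrays of one protein sequence run at different concentrations or buffers and across linkers. A negative Z-score can be read as non-binding.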

[2] = biological target: Gal(b1-3)GlcNAc(b1-2)[Gal(b1-3)GlcNAc(b1-6)]Man(a1-6)[Gal(b1-3)GlcNAc(b1-2)Man(a1-3)]Man(b1-4)GlcNAc(b1-4)GlcNAc
Method in brief: as §1

[3] = biological target: Gal(b1-3)GlcNAc(b1-3)Gal(b1-3)GlcNAc
Method in brief: as §1

[4] = biological target: Gal(b1-3)GlcNAc(b1-3)Gal(b1-4)Glc
Method in brief: as §1

[5] = biological target: Gal(b1-3)GlcNAc(b1-3)Gal(b1-4)GlcNAc
Method in brief: as §1

[6] = biological target: Gal(b1-3)GlcNAc(b1-3)Gal(b1-4)GlcNAc(b1-2)Man(a1-3)[Gal(b1-3)GlcNAc(b1-3)Gal(b1-4)GlcNAc(b1-2)Man(a1-6)]Man(b1-4)GlcNAc(b1-4)GlcNAc
Method in brief: as §1

[7] = biological target: Gal(b1-3)GlcNAc(b1-3)Gal(b1-4)GlcNAc(b1-2)[Gal(b1-3)GlcNAc(b1-3)Gal(b1-4)GlcNAc(b1-6)]Man(a1-6)[Gal(b1-3)GlcNAc(b1-3)Gal(b1-4)GlcNAc(b1-2)Man(a1-3)]Man(b1-4)GlcNAc(b1-4)[Fuc(a1-6)]GlcNAc
Method in brief: as §1

[8] = biological target: Gal(b1-3)GlcNAc(b1-3)Gal(b1-4)GlcNAc(b1-3)Gal(b1-4)GlcNAc(b1-2)[Gal(b1-3)GlcNAc(b1-3)Gal(b1-4)GlcNAc(b1-3)Gal(b1-4)GlcNAc(b1-6)]Man(a1-6)[Gal(b1-3)GlcNAc(b1-3)Gal(b1-4)GlcNAc(b1-3)Gal(b1-4)GlcNAc(b1-2)Man(a1-3)]Man(b1-4)GlcNAc(b1-4)[Fuc(a1-6)]GlcNAc
Method in brief: as §1

[9] = biological target: Gal(b1-3)GlcNAc(b1-3)Gal(b1-4)GlcNAc(b1-6)[Gal(b1-3)GlcNAc(b1-3)]Gal(b1-4)Glc
Method in brief: as §1

[10] = biological target: Gal(b1-3)GlcNAc(b1-3)Gal(b1-4)[Fuc(a1-3)]GlcNAc(b1-6)[Gal(b1-3)GlcNAc(b1-3)]Gal(b1-4)Glc
Method in brief: as §1

[11] = biological target: Gal(b1-3)GlcNAc(b1-3)GalNAc
Method in brief: as §1

[12] = biological target: Gal(b1-3)GlcNAc(b1-6)Gal(b1-4)GlcNAc
Method in brief: as §1

[13] = biological target: Gal(b1-3)GlcNAc(b1-6)GalNAc
Method in brief: as §1

[14] = biological target: Gal(b1-3)GlcNAc(b1-6)[Gal(b1-3)]GalNAc
Method in brief: as §1

Gal(b1-3)GlcNAc6S = biological target: Gal(b1-3)GlcNAc6S
Method in brief: as §1

[15] = biological target: Gal(b1-3)[Fuc(a1-4)]GlcNAc
Method in brief: as §1

[16] = biological target: Gal(b1-3)[Fuc(a1-4)]GlcNAc(b1-2)Man
Method in brief: as §1

[17] = biological target: Gal(b1-3)[Fuc(a1-4)]GlcNAc(b1-2)Man(a1-3)[Gal(b1-3)[Fuc(a1-4)]GlcNAc(b1-2)Man(a1-6)]Man(b1-4)GlcNAc(b1-4)[Fuc(a1-6)]GlcNAc
Method in brief: as §1

[18] = biological target: Gal(b1-3)[Fuc(a1-4)]GlcNAc(b1-3)Gal(b1-3)[Fuc(a1-4)]GlcNAc
Method in brief: as §1

[19] = biological target: Gal(b1-3)[Fuc(a1-4)]GlcNAc(b1-3)Gal(b1-4)GlcNAc
Method in brief: as §1

[20] = biological target: Gal(b1-3)[Fuc(a1-4)]GlcNAc(b1-3)Gal(b1-4)[Fuc(a1-3)]GlcNAc
Method in brief: as §1

[21] = biological target: Gal(b1-3)[Fuc(a1-4)]GlcNAc(b1-6)GalNAc
Method in brief: as §1

[22] = biological target: Gal(b1-3)[GlcNAc(b1-6)]GalNAc
Method in brief: as §1

[23] = biological target: Gal(b1-3)[Neu5Ac(a2-6)]GalNAc
Method in brief: as §1

[24] = biological target: Gal(b1-3)[Neu5Ac(a2-6)]GlcNAc(b1-4)Gal(b1-4)Glc
Method in brief: as §1

[25] = biological target: Gal(b1-3)[Neu5Ac(b2-6)]GalNAc
Method in brief: as §1

Gal(b1-4)Gal = biological target: Gal(b1-4)Gal
Method in brief: as §1

[26] = biological target: Gal(b1-4)GalNAc(a1-3)[Fuc(a1-2)]Gal(b1-4)GlcNAc
Method in brief: as §1

[27] = biological target: Gal(b1-4)GalNAc(b1-3)[Fuc(a1-2)]Gal(b1-4)GlcNAc
Method in brief: as §1

Gal(b1-4)Glc = biological target: Gal(b1-4)Glc
Method in brief: as §1

B1: Blon0732mut (Bifidobacterium longum) (protein)
chain: MPTSEHKADDATRHLTLIPAPVTLEYTHGTALIGPLVTIEDADQSWETLPIEQLSDELRHRYGVTVLRRRTHGTVISLGLDSRLAHDEYTLDVSESEGIRVRGGGESGLRYGLQTLRQIIGQTSRAIPCLHIQDKPAFAVRAYSLDVTRGRVPTMEFLTWFVDQLALYKYNQFQLYVEHAFAFVELSEAWRGTDPLTAADITYLDEYCARRGIELVPSLATFGHMYMNLRTREHRGLGEFPEDADRPFSFIERMEHHTLNAADPKAHDFASRLIEEYAPLFRSKSFNIGGNETFDLGRGRSAQDAPEAGRDELYAGFVRDLCETLARHGRQPMLWADIALESPRTMDLLPGDITMLNWMYEPQIDESKIQTIATQGRRQFVCPAVRAWSRFFPDYAGAWLNTYHMALAGTKYDAEGMVVTDWGDYGHVNDPRLSVPGLCYGAQNAWNPIEIDAHEMNRRISALVYGDESGRIMDCLARIDSDGVSFPWDLAVQVLELEYGSGTGALNMDVAACMERSSGGKLTLDRTLGCDDARRRMLQWNRERIERRRDCDQVLRDCGDAFAGLDKGGLTAEFLSVMLDGQRLFNELGEELLALADGKDVGSGANRLAADLELWFERYRAQWLSVGRHAELARIAHVVWSLADILRRGAL
Question: What does the source list for B1?
Answer: glycan array binding signal (z-score) [1]: 1.08; glycan array binding signal (z-score) [2]: -0.481; glycan array binding signal (z-score) [3]: -0.1; glycan array binding signal (z-score) [4]: -1.13; glycan array binding signal (z-score) [5]: -0.644; glycan array binding signal (z-score) [6]: -0.152; glycan array binding signal (z-score) [7]: 0.19; glycan array binding signal (z-score) [8]: 0.698; glycan array binding signal (z-score) [9]: -1.13; glycan array binding signal (z-score) [10]: -0.338; glycan array binding signal (z-score) [11]: -1.16; glycan array binding signal (z-score) [12]: -0.856; glycan array binding signal (z-score) [13]: -1.01; glycan array binding signal (z-score) [14]: 0.168; glycan array binding signal (z-score) (Gal(b1-3)GlcNAc6S): 0.096; glycan array binding signal (z-score) [15]: 0.017; glycan array binding signal (z-score) [16]: -0.411; glycan array binding signal (z-score) [17]: 0.217; glycan array binding signal (z-score) [18]: -0.751; glycan array binding signal (z-score) [19]: 1.61; glycan array binding signal (z-score) [20]: -1.09; glycan array binding signal (z-score) [21]: -0.524; glycan array binding signal (z-score) [22]: 0.638; glycan array binding signal (z-score) [23]: -0.661; glycan array binding signal (z-score) [24]: -0.334; glycan array binding signal (z-score) [25]: -0.541; glycan array binding signal (z-score) (Gal(b1-4)Gal): -0.419; glycan array binding signal (z-score) [26]: 0.345; glycan array binding signal (z-score) [27]: -0.827; glycan array binding signal (z-score) (Gal(b1-4)Glc): -0.325
